Experimental data published in paper PMC4993430.

target: T1, Xenopus Mcm10 (Xenopus laevis (endogenous in egg extract)) (UniProt Q5EAW4); experiment: co-IP; chromatin isolated in S-phase (45 min) from Xenopus egg extract, with or without 50 uM camptothecin; DNA digested with Benzonase, sample sonicated; supernatant immunoprecipitated with Mcm10 antibody on protein G-Dynabeads, 1 h at 4°C; immunoblot
T1 sequence: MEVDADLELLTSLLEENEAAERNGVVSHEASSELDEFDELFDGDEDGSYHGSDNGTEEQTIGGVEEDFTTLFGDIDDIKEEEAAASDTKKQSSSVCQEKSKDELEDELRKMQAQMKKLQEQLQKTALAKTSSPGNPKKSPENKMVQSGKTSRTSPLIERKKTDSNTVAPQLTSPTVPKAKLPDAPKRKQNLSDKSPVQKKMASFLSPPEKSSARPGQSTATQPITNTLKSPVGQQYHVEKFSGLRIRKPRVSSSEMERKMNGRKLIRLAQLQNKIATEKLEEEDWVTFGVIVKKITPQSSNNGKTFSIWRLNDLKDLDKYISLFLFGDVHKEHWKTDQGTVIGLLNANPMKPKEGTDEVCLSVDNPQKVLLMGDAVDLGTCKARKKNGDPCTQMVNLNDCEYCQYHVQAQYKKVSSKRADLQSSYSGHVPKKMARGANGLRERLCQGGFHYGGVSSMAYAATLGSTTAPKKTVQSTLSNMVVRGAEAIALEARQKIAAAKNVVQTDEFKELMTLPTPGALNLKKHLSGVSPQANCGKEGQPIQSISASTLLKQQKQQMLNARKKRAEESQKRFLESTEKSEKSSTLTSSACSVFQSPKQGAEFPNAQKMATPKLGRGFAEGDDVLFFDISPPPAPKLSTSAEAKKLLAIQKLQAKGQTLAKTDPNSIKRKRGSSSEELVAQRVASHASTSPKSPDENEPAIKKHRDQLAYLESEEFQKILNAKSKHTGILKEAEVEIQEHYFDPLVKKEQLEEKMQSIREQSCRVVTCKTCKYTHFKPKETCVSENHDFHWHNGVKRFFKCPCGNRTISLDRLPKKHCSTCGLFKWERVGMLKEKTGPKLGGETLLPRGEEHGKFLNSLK

Question: ATM was tested. Which binding did it give?
Answer: Its binding is “binds”.

Question: For Nbs1, which binding is on record?
Answer: The binding was “binds”.

Question: With Rad17 as the substance, how does the binding read?
Answer: Its binding is “binds”.

Results are given in words; binding and its absence hold for the method and conditions named. Binding seen in cells or lysates may run through a third protein. Binding calls can cover weak binding; strength is not graded here.
